Experimental findings from PMC3738441 are described below.

Chains of the proteins cited; added tags and fusions are not shown. Lines headed by an entry give the natural chain unless they say otherwise; changes in a name come on top.
UniProt O94656: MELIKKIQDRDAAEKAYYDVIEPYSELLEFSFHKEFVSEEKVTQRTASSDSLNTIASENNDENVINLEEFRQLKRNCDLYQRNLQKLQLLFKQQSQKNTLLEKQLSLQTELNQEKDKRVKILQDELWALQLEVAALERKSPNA

Results are given in words; binding and its absence hold for the method and conditions named. In cells and extracts the contact can be indirect. Binding can be weak; no strength is given. Tags and fused reporters may be left off the sequences shown.

The assay addresses Atg16-YFP (S. pombe) (UniProt O94656). The experiment in a line: co-IP; S. pombe cell lysates made by glass bead beating; GFP-trap or RFP-trap agarose beads to precipitate YFP- or mCherry-tagged proteins; Atg5-Atg16 tested in wild-type, atg12Δ and atg18aΔ cells.

B1: Atg5-Myc (protein, UniProt O74971 1-261)
chain: MNVDNNKGNIPELLWNGTISVRIDYEGNSLAYLANVPRQSYFAQILPNVQRLLAPSIPLSECWLDYNGVPLKWHWPVGLLFDLLTVFDPDTPRAPVLWRIQLRSGLFPTTKILQMETMDTFRTYFFNCLKESDYVRNGSSSGIIALSKAETDTYWNAILNHDYYDFRPIAIKILFSKSKFIPLKIYLGANAPIIQTSAPLGSSLGEFLNKRLPDLFPSCDKFLIVKPVIHGITIFLQSVLDELNRDFCYIDGFLHIVLMKV
On to B1, for which the binding entry is listed as “binds”.
